These results are taken from US20250026837A1 (CANCURE, published 2025).

These are yes or no findings as the source states them, for the method shown. Some results given as binding are weak or reduced against the parent protein; the word gives no strength. Where a sequence is shown, tags or fusion partners need not be part of it.

This experiment has as its target T1, MICB (antigen in solution in the BLI assay) (UniProt Q29980).
T1 sequence (looked up): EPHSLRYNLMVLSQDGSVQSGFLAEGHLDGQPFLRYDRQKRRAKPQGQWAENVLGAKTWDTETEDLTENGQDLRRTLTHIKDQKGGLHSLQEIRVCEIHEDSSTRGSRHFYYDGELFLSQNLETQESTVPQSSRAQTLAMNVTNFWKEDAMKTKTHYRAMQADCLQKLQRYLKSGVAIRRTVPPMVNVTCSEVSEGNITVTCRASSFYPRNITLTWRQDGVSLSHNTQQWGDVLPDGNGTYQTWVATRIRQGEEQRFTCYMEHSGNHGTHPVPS
In words: Bio-layer interferometry (Octet Red96), antibody captured on biosensors, MICB dilution series in solution.

B1: antibody K (Ab-K; humanized HC2 / humanized LC3, human IgG1) (antibody, V domains shown)
VH: EVQLQESGPGLVKPSQTLSLTCTVSGYSITSDYAWNWIRQPPGKGLEWIGYISYSGSTNYNPSLKSRVTISRDTSKNQFSLKLSSVTAADTAVYYCARGGTYFDYWGQGTLVTVSS
VL: DVVMTQSPSTLSASVGDRVTITCRASAHINNWLAWYQQKPGKAPKLLISDATSLESGVPSRFSGSGSGKEYTLTISSLQPDDFATYYCQHYWSTPWTFGQGTKVEIKR
notes: also called K (HC2/LC3)
As to B1, the binding entry is “binds”.

B2: antibody J (Ab-J; chimeric B10G5, parental HC / parental LC with human IgG1 Fc region) (antibody, V domains shown)
VH: EVQLEESGPGLVKPSQSLSLTCTVTGYSITSDYAWNWIRQFPGNKLEWMGYISYSGSTNYNPSLKSRISITRDTSKNQFFLQLNSVITEDTATYYCARGGTYFDYWGQGTTLTVSS
VL: DIVLTQTTSYLSVSLGGRVTIACKASAHINNWLAWYQQKPGNAPRLLISDATSLETGVPSRFSGSGSGKDYTLSITSLQTEDVATYYCQHYWSTPWTFGGGTKLEIK
notes: also called chimeric antibody B10G5
Regarding B2, the binding result is given as “binds”.
